Experimental findings from the supplement of paper PMC11659162 are described below.

Several values for one entry are separate records, joined by “and”; a condition that tells them apart may be missing. Equal entries are not always repeated. This is one part of the list. This is a noisy data set.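 The cells are a human neuroglioma line carrying a green fluorescent autophagy reporter.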

The subject of one assay is H4 GFP-LC3. Kind of assay: ACBP immunofluorescence intensity (scaled to control) (AU (scaled)); higher = more intracellular ACBP/DBI. The settings on record: 5 µM; 6 h.
As to `CC(N)Cc1cnc[nH]1` (stereo not given), the ACBP immunofluorescence intensity was 0.959 and 0.958.
On to `CC12NC(Cc3ccccc31)c1ccccc12` (single isomer, unassigned; (+)), for which the ACBP immunofluorescence intensity turned out to be 0.757.
Turning to `O=C1/C(=C/c2ccccc2)C[C@@]2(O)[C@H]3Cc4ccc(O)c5c4[C@@]2(CCN3CC2CC2)[C@H]1O5`, the ACBP immunofluorescence intensity came out at 0.897.
In turn, `CCc1c(C(=O)OC)ncc2[nH]c3cc(OC)c(OC)cc3c12` had an ACBP immunofluorescence intensity of 0.884.
Same read-out and setting: under `c1ccc2c(c1)OCC(C1=NCCN1)O2` (stereo not given) stands 0.868; under `C[N+](C)(C)CCCCCCCCCC[N+](C)(C)C`, 0.958; under `CCOC(OCC)P(=O)(O)CCCN`, 0.891.
Same read-out and setting: under `CN1C(=O)CCS(=O)(=O)C1c1ccc(Cl)cc1` (stereo not given) stands 0.983.
`CN1CC[C@@H]2CN3CCc4cccc(c43)[C@@H]2C1`: the ACBP immunofluorescence intensity is 0.872.
Still for that read-out and setting: next, `C=C(C)[C@@H]1[C@H]2OC(=O)[C@@H]1[C@]1(O)C[C@H]3O[C@]34C(=O)O[C@H]2[C@]14C`: 0.973; `Oc1ccc2c3c1O[C@H]1c4[nH]c5ccccc5c4C[C@@]4(O)[C@@H](C2)N(CC2CC2)CC[C@]314`: 0.813.
Same read-out and setting: next, `CC(C)C[C@H](NC(=O)[C@H](Cc1ccccc1)NC(=O)CNC(=O)[C@@H](CSC(C)(C)C)NC(=O)[C@@H](N)Cc1ccc(O)cc1)C(=O)N[C@H](C(=O)OC(C)(C)C)[C@@H](C)O`: 0.526.
Consider `C1CCc2nnnn2CC1`, for which the ACBP immunofluorescence intensity was found to be 0.975.
Compound `CNCCc1ccc(O)c(O)c1` gave an ACBP immunofluorescence intensity of 0.935.
Still for that read-out and setting: under `C=CCN1C[C@H](C(=O)N(CCCN(C)C)C(=O)NCC)C[C@@H]2c3cccc4[nH]cc(c34)C[C@H]21` stands 0.974; under `CC(C)CC1C(=O)N2CCCC2C2(O)OC(NC(=O)C3C=C4c5cccc6[nH]cc(c56)CC4N(C)C3)(C(C)C)C(=O)N12` (stereo not given), 0.985; under `COc1ccc(CCN2CCC(Nc3nc4ccccc4n3Cc3ccc(F)cc3)CC2)cc1`, 0.987.
Same read-out and setting: under `CN(C(=O)Cc1ccc(Cl)c(Cl)c1)[C@H](CN1CCCC1)c1ccccc1` stands 0.735; under `CCCN(CCC)C1CCc2cccc(O)c2C1` (stereo not given), 0.998.

Staying with this assay, now noted: 5 µM; 24 h.
For the compound `NC1CCc2cc(O)c(O)cc2C1` (stereo not given), the ACBP immunofluorescence intensity stood at 0.744.
`NCC(CS(=O)(=O)O)c1ccc(Cl)cc1` (stereo not given): the ACBP immunofluorescence intensity was 0.929.
The same measure, in the same setting: next, `CC(=O)N1CC[N+](C)(C)CC1`: 0.781.
In the case of `CCCN1CCC[C@@H]2Cc3nc(N)ncc3C[C@H]21`, the ACBP immunofluorescence intensity was determined as 0.85.
Compound `CCCC[N+]1(C)[C@@H]2CC(OC(=O)[C@H](CO)c3ccccc3)C[C@H]1[C@@H]1O[C@@H]12` (stereo not given in full) yielded an ACBP immunofluorescence intensity of 0.56.
The same measure, in the same setting: next, `Oc1ccc2c3c1O[C@H]1c4[nH]c5c(c4C[C@@]4(O)[C@@H](C2)N(CC2CC2)CC[C@]314)C[C@@]1(O)[C@H]2Cc3ccc(O)c4c3[C@@]1(CCN2CC1CC1)[C@H]5O4`: 0.593.
The compound `O=C1CC[C@@]2(O)[C@H]3Cc4ccc(O)c5c4[C@@]2(CCN3CC2CC2)[C@H]1O5` came in with an ACBP immunofluorescence intensity of 0.485.
The compound `COC(=O)/C=C/C(=O)N[C@@H]1CC[C@@]2(O)[C@H]3Cc4ccc(O)c5c4[C@@]2(CCN3CC2CC2)[C@H]1O5` gave an ACBP immunofluorescence intensity of 0.579.
On the same count and under the same terms, under `N=C(N)NCCCCCCCCCCNC(=N)N` stands 0.471; under `CCN(CC)C(=O)N[C@H]1C=C2c3cccc4[nH]cc(c34)C[C@H]2N(C)C1`, 0.473.
Turning to `CN1CCC(c2c[nH]c3ccc(O)cc23)CC1`, the ACBP immunofluorescence intensity was 0.813.
Still for that read-out and setting: under `CCC(C)C(NC(=O)C1CCCN1C(=O)C(CCC(=O)O)NC(=O)C(NC(=O)C(Cc1ccccc1)NC(=O)C1CCCN1C(=O)C(N)Cc1ccc(O)cc1)C(C)C)C(=O)O` (stereo not given) stands 0.917; under `COc1ccc2[nH]cc(C3=CCNCC3)c2c1`, 0.399.
Regarding `CCC1(C2=NCCN2)Cc2ccccc2O1` (stereo not given), the ACBP immunofluorescence intensity was determined as 0.643.
Still for that read-out and setting: under `CN(C)CCN(C)CCc1ccc(Cl)c(Cl)c1` stands 0.634; under `C=CC[N+]1(C)CC[C@]23c4c5ccc(O)c4O[C@H]2C(=O)CC[C@@]3(O)[C@H]1C5` (stereo not given in full), 0.888; under `CC(N)Cc1cnc[nH]1` (stereo not given), 0.785 and 0.872.
`CC12NC(Cc3ccccc31)c1ccccc12` (single isomer, unassigned; (+)) returned an ACBP immunofluorescence intensity of 0.343.
On to `O=C1/C(=C/c2ccccc2)C[C@@]2(O)[C@H]3Cc4ccc(O)c5c4[C@@]2(CCN3CC2CC2)[C@H]1O5`, for which the ACBP immunofluorescence intensity came out at 0.792.
Still for that read-out and setting: under `CCc1c(C(=O)OC)ncc2[nH]c3cc(OC)c(OC)cc3c12` stands 0.478; under `c1ccc2c(c1)OCC(C1=NCCN1)O2` (stereo not given), 0.501.
The compound `C[N+](C)(C)CCCCCCCCCC[N+](C)(C)C` gave an ACBP immunofluorescence intensity of 0.46.
In turn, `CCOC(OCC)P(=O)(O)CCCN` showed an ACBP immunofluorescence intensity of 0.452.
On the same count and under the same terms, under `CN1C(=O)CCS(=O)(=O)C1c1ccc(Cl)cc1` (stereo not given) stands 0.439; under `CN1CC[C@@H]2CN3CCc4cccc(c43)[C@@H]2C1`, 0.513; under `C=C(C)[C@@H]1[C@H]2OC(=O)[C@@H]1[C@]1(O)C[C@H]3O[C@]34C(=O)O[C@H]2[C@]14C`, 0.423.
